From patent US12558430B2, “Dual amylin and calcitonin receptor agonists and uses thereof” (Eli Lilly and Company, priority 2020, dated 2026)
At least one compound was matched to its structure with a doubt left. Starred links: 1 amine or outer side, 2 acyl side, 3 side chain; linkers in the order of their positions; H or OH if unused. Non-standard residues stand in square brackets, D forms with d. Residues, ends and D or L forms follow the SMILES beside them. Groups on a side chain read outwards from the residue. *: point of attachment. C20 diacid = O=C(O)CCCCCCCCCCCCCCCCCCC(=O)*; γGlu = O=C(O)[C@H](CCC(=O)[*:2])N[*:1]; AEEA = NCCOCCOCC(=O)O; Aib = CC(C)(N)C(=O)O

Test system: Sprague Dawley (SD) rats
Assay: Acute food intake and body weight, 96-hour study in normal rats
Type: in vivo, rat

CC(=O)N[C@@H](C)C(=O)N[C@@H](CO)C(=O)N[C@@H](Cc1c[nH]cn1)C(=O)N[C@@H](CC(C)C)C(=O)N[C@@H](CO)C(=O)N[C@H](C(=O)N[C@@H](C)C(=O)N[C@H](C(=O)N[C@@H](CC(C)C)C(=O)NCC(=O)N[C@@H](CCCCNC(=O)COCCOCCNC(=O)COCCOCCNC(=O)CC[C@H](NC(=O)CCCCCCCCCCCCCCCCCCC(=O)O)C(=O)O)C(=O)N[C@@H](CC(C)C)C(=O)N[C@@H](CO)C(=O)NC(C)(C)C(=O)N[C@@H](CCC(=O)O)C(=O)N[C@@H](CC(C)C)C(=O)N[C@@H](Cc1c[nH]cn1)C(=O)N[C@@H](CCCCN)C(=O)N[C@@H](CC(C)C)C(=O)N[C@@H](CCC(=O)O)C(=O)N[C@@H](CC(=O)O)C(=O)N[C@@H](Cc1ccc(O)cc1)C(=O)N1CCC[C@H]1C(=O)N[C@@H](CCCNC(=N)N)C(=O)N[C@H](C(=O)N[C@@H](CC(=O)O)C(=O)N[C@H](C(=O)NCC(=O)N[C@@H](C)C(=O)N[C@@H](CCC(=O)O)C(=O)N[C@@H](CO)C(=O)N1CCC[C@H]1C(N)=O)C(C)C)[C@@H](C)O)C(C)C)[C@@H](C)O [Compound II] (Ac-ASHLSTAVLGK([AEEA-AEEA-γGlu-C20 diacid])LS[Aib]ELHKLEDYPRTDVGAESP-NH2)
% Change in Body Weight (0.1 nmol/kg SC, 48 h): −0.16% | Daily Food Intake (0.1 nmol/kg SC, 48 h): 19.65 grams | % Change in Body Weight (0.1 nmol/kg SC, 72 h): 0.61% | Daily Food Intake (0.1 nmol/kg SC, 72 h): 19.93 grams | % Change in Body Weight (0.1 nmol/kg SC, 96 h): 2.06% | Daily Food Intake (0.1 nmol/kg SC, 96 h): 21.60 grams | % Change in Body Weight (0.3 nmol/kg SC, 0 h): 0.00% | Daily Food Intake (0.3 nmol/kg SC, 0 h): 0.00 grams | % Change in Body Weight (0.3 nmol/kg SC, 24 h): −0.91% | Daily Food Intake (0.3 nmol/kg SC, 24 h): 15.55 grams | % Change in Body Weight (0.3 nmol/kg SC, 48 h): −0.64% | Daily Food Intake (0.3 nmol/kg SC, 48 h): 18.65 grams | % Change in Body Weight (0.3 nmol/kg SC, 72 h): 0.39% | Daily Food Intake (0.3 nmol/kg SC, 72 h): 20.47 grams | % Change in Body Weight (0.3 nmol/kg SC, 96 h): 1.50% | Daily Food Intake (0.3 nmol/kg SC, 96 h): 21.32 grams | % Change in Body Weight (1 nmol/kg SC, 0 h): 0.00% | Daily Food Intake (1 nmol/kg SC, 0 h): 0.00 grams | % Change in Body Weight (1 nmol/kg SC, 24 h): −1.82% | Daily Food Intake (1 nmol/kg SC, 24 h): 13.72 grams | % Change in Body Weight (1 nmol/kg SC, 48 h): −1.44% | Daily Food Intake (1 nmol/kg SC, 48 h): 16.92 grams | % Change in Body Weight (1 nmol/kg SC, 72 h): −0.38% | Daily Food Intake (1 nmol/kg SC, 72 h): 19.77 grams | % Change in Body Weight (1 nmol/kg SC, 96 h): 0.57% | Daily Food Intake (1 nmol/kg SC, 96 h): 21.03 grams | % Change in Body Weight (3 nmol/kg SC, 0 h): 0.00% | Daily Food Intake (3 nmol/kg SC, 0 h): 0.00 grams | % Change in Body Weight (3 nmol/kg SC, 24 h): −3.63% | Daily Food Intake (3 nmol/kg SC, 24 h): 5.32 grams | % Change in Body Weight (3 nmol/kg SC, 48 h): −4.68% | Daily Food Intake (3 nmol/kg SC, 48 h): 10.22 grams | % Change in Body Weight (3 nmol/kg SC, 72 h): −4.66% | Daily Food Intake (3 nmol/kg SC, 72 h): 14.88 grams | % Change in Body Weight (3 nmol/kg SC, 96 h): −3.26% | Daily Food Intake (3 nmol/kg SC, 96 h): 18.78 grams | % Change in Body Weight (10 nmol/kg SC, 0 h): 0.00% | Daily Food Intake (10 nmol/kg SC, 0 h): 0.00 grams | % Change in Body Weight (10 nmol/kg SC, 24 h): −5.67% | Daily Food Intake (10 nmol/kg SC, 24 h): 2.77 grams | % Change in Body Weight (10 nmol/kg SC, 48 h): −10.02% | Daily Food Intake (10 nmol/kg SC, 48 h): 0.87 grams | % Change in Body Weight (10 nmol/kg SC, 72 h): −9.88% | Daily Food Intake (10 nmol/kg SC, 72 h): 9.62 grams | % Change in Body Weight (10 nmol/kg SC, 96 h): −8.95% | Daily Food Intake (10 nmol/kg SC, 96 h): 15.45 grams | % Change in Body Weight (30 nmol/kg SC, 0 h): 0.00% | Daily Food Intake (30 nmol/kg SC, 0 h): 0.00 grams | % Change in Body Weight (30 nmol/kg SC, 24 h): −6.24% | Daily Food Intake (30 nmol/kg SC, 24 h): 3.75 grams | % Change in Body Weight (30 nmol/kg SC, 48 h): −11.60% | Daily Food Intake (30 nmol/kg SC, 48 h): 0.30 grams | % Change in Body Weight (30 nmol/kg SC, 72 h): −12.43% | Daily Food Intake (30 nmol/kg SC, 72 h): 5.67 grams | % Change in Body Weight (30 nmol/kg SC, 96 h): −11.74% | Daily Food Intake (30 nmol/kg SC, 96 h): 14.85 grams | effect on food consumption and body weight (Sprague Dawley rats, single SC dose, 96-hour study): reduce food consumption and reduce body weight acutely and in a dose-dependent manner
